Results deposited as PubChem BioAssay AID1053208 (Peter MacCallum Cancer Centre, 2014)
The whole screen tested about 17,000 reagents; below is an unselected part. Of all reagents, 788 (4.7%) are marked active. 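Calls rest on z-score classes alone; an extra cut-off of viability at most 70% of control was not applied to them.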 Reagents against one gene are numbered here. Further read-outs or replicates are left out here.

- Aim: 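Find knock-downs that sensitise mouse osteosarcoma cells to doxorubicin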 (primary screen)
- Cells: mouse osteosarcoma cells, early-passage culture from an engineered mouse model of fibroblastic bone tumour
- Reagent: siRNA pool against mouse genes, 40 nM
- Timing: about 120 h (48 h before drug, then 72 h with drug)
- Challenge: doxorubicin 100 nM for 72 h, roughly 30-40% inhibitory dose
- Read-out: 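Luminescent ATP signal taken as viability with or without 100 nM doxorubicin for 72 h; mean of two wells set against non-targeting siRNA and turned into robust z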
- Scale: viability z-score with doxorubicin: higher = more viable cells under doxorubicin; viability z-score without drug: higher = more viable cells with knock-down alone
- Hit rule: 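Called active if knock-down leaves viability unchanged without drug (z within -2 to 2) but lowers it with doxorubicin (z at or under -2)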

target	reagent	combined z-score class	viability z-score with doxorubicin	viability z-score without drug	Outcome
Or51af1 (olfactory receptor family 51 subfamily AF member 1)	1	low cell count with doxorubicin only	-3.15	-1.52	active
Xpnpep1 (X-prolyl aminopeptidase (aminopeptidase P) 1, soluble)	1	no change with or without drug	0.22	0.51	inactive
Selenoo (selenoprotein O)	1	no change with or without drug	0.56	0.17	inactive
Cpe (carboxypeptidase E)	1	no change with or without drug	-0.11	-0.17	inactive
Prtn3 (proteinase 3)	1	no change with or without drug	0.11	1.18	inactive
Ccn1 (cellular communication network factor 1)	1	no change with or without drug	1.91	1.18	inactive
Fez2 (fasciculation and elongation protein zeta 2)	1	no change with or without drug	-0.67	-0.17	inactive
Cit (citron)	1	no change with or without drug	-0.45	-1.52	inactive
Cit (citron)	2	no change with or without drug	0.56	0	inactive
9530009G21Rik (RIKEN cDNA 9530009G21 gene)	1	no change with or without drug	-0.67	0.84	inactive
E230012M21	1	no change with or without drug	-0.22	0.34	inactive
Or4c11c (olfactory receptor family 4 subfamily C member 11C)	1	no change with or without drug	-0.45	-0.51	inactive
Prl (prolactin)	1	no change with or without drug	0.45	-0.34	inactive
Msl1 (male specific lethal 1)	1	no change with or without drug	-0.45	0.17	inactive
Gne	1	no change with or without drug	-1.12	0.17	inactive
Cbln3 (cerebellin 3 precursor protein)	1	no change with or without drug	-0.67	0.51	inactive
Kdm5c (lysine demethylase 5C)	1	no change with or without drug	-0.45	0.51	inactive
Sncaip (synuclein, alpha interacting protein (synphilin))	1	no change with or without drug	1.12	1.01	inactive
Or6b9 (olfactory receptor family 6 subfamily B member 9)	1	low cell count with doxorubicin only	-2.02	-1.01	active
St3gal4 (ST3 beta-galactoside alpha-2,3-sialyltransferase 4)	1	no change with or without drug	-1.8	-0.17	inactive
Slc17a2	1	no change with or without drug	-1.69	-0.67	inactive
Ret (ret proto-oncogene)	1	no change with or without drug	0	0.84	inactive
Hpdl (4-hydroxyphenylpyruvate dioxygenase-like)	1	no change with or without drug	-1.8	-0.84	inactive
Acbd6 (acyl-Coenzyme A binding domain containing 6)	1	no change with or without drug	0.79	1.01	inactive
Rpl12 (ribosomal protein L12)	1	low cell count with and without drug	-7.31	-7.25	inactive
Kif18a (kinesin family member 18A)	1	no change with or without drug	0	0	inactive
Vmn2r81 (vomeronasal 2, receptor 81)	1	no change with or without drug	0.34	0.67	inactive
Polm (polymerase (DNA directed), mu)	1	low cell count with doxorubicin only	-2.7	-1.01	active
Nkd1 (naked cuticle 1)	1	no change with or without drug	-0.22	-0.84	inactive
Cct7 (chaperonin containing TCP1 subunit 7)	1	low cell count without drug only	-0.45	-2.02	inactive
Dmrta1	1	no change with or without drug	-1.35	1.52	inactive
Tgm6 (transglutaminase 6)	1	no change with or without drug	-0.67	-1.01	inactive
S1pr1 (sphingosine-1-phosphate receptor 1)	1	no change with or without drug	-0.45	-1.18	inactive
Or5b97 (olfactory receptor family 5 subfamily B member 97)	1	no change with or without drug	-0.22	-0.17	inactive
Cmtm2a (CKLF-like MARVEL transmembrane domain containing 2A)	1	no change with or without drug	-1.12	-1.85	inactive
Klc2 (kinesin light chain 2)	1	no change with or without drug	-1.35	1.35	inactive
Gnpda2 (glucosamine-6-phosphate deaminase 2)	1	no change with or without drug	-1.35	-0.84	inactive
Cast (calpastatin)	1	no change with or without drug	1.01	0.17	inactive
Dynlrb2 (dynein light chain roadblock-type 2)	1	no change with or without drug	1.01	1.18	inactive
Mrpl12 (mitochondrial ribosomal protein L12)	1	no change with or without drug	-0.79	-1.52	inactive
Tmem254 (transmembrane protein 254)	1	no change with or without drug	0.45	1.85	inactive
Cfd (complement factor D)	1	no change with or without drug	0.56	0.84	inactive
Ugt2b37 (UDP glucuronosyltransferase 2 family, polypeptide B37)	1	no change with or without drug	-0.22	-0.84	inactive
Mcf2l (mcf.2 transforming sequence-like)	1	no change with or without drug	-0.67	0.67	inactive
C030033M19RIK	1	no change with or without drug	0	-1.18	inactive
Tfap2e (transcription factor AP-2, epsilon)	1	high cell count with doxorubicin only	2.36	0.17	inactive
Uba6 (ubiquitin-like modifier activating enzyme 6)	1	no change with or without drug	0.22	0.17	inactive
Kcnk5 (potassium channel, subfamily K, member 5)	1	no change with or without drug	-1.24	-1.85	inactive
Slc5a11	1	no change with or without drug	-1.8	-0.51	inactive
Adap2 (ArfGAP with dual PH domains 2)	1	low cell count with doxorubicin only	-2.02	0.51	active

3 entries from above, ordered by “viability z-score with doxorubicin”, lowest first:
target	reagent	combined z-score class	viability z-score with doxorubicin	viability z-score without drug	Outcome
St3gal4 (ST3 beta-galactoside alpha-2,3-sialyltransferase 4)	1	no change with or without drug	-1.8	-0.17	inactive
Slc17a2	1	no change with or without drug	-1.69	-0.67	inactive
Ret (ret proto-oncogene)	1	no change with or without drug	0	0.84	inactive
